This is one part of the list. These are further read-outs of the screen, such as a control signal, another cell line or another target. No call is given for them. Compounds called inactive in the main read-out are mostly missing here. The note in brackets gives the kind of curve behind each potency; many fits are weak.

A short description of the assay: qHTS Assay for Lipid Storage Modulators in Drosophila S3 Cells.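 On cell number change: cells counted by Cell Tracker Red CMTPX staining in the red channel.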 The note with it: BODIPY lipid droplet fluorescence, 18-24 h; for cell number change: measured here: cell count max response, cells fed with added oleic acid. Summed up: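 Laser-scanning cytometry quantifies lipid droplet accumulation (500–530 nm total intensity; droplet/cell object ratio) in oleic acid-fed (400 uM added) Drosophila S3 cells treated with a concentration series. 20 uM Triacsin C defined 100% inhibition.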
(qHTS replaces the single test concentration by a dilution series.)

[1] abbreviates: measured here: lipid fluorescence (Fed channel) AC50, cells fed with added oleic acid.
[2] abbreviates: measured here: cell number channel AC50, cells fed with added oleic acid.

Turning to `CCOc1ccccc1NC(=O)CC1Nc2ccccc2NC1=O` (configuration not stated), the cell number change is 7.69%. Consider `CCNC(=O)c1ccccc1-c1nc(-c2ccccc2OC)no1`, for which the cell number change was determined as 19.3%. `CCCC(=O)NNC(=O)c1c(O)c2ccccc2[nH]c1=O`: the cell number change was 2.82%. The half-maximal activity concentration (AC50) under setting [1] was 6.51 µM [rising, single point]. Turning to `Cc1cc(C)n(/N=C/c2c[nH]c3ccccc23)c(=O)c1`, the cell number change came to 3.26%. In addition, the concentration at half-maximal activity (AC50) under setting [1] is 0.00461 µM [falling, full curve, poor fit]. For `CCOC(=O)/C(=N\Nc1ccc(Br)cc1)N1CC(C)OC(C)C1` (configuration not stated), the concentration at half-maximal activity (AC50) under setting [1] is 2.59 µM [rising, partial curve]. On to `O=c1[nH]c(Nc2ccccc2)cc2ccccc12`, for which the cell number change was 0.0086%. Moreover, the AC50 under setting [1] is 14.6 µM [falling, partial curve]. Turning to `O=C(COc1ccc(Cl)cc1)NCCNc1ccc([N+](=O)[O-])cc1`, the cell number change was determined as 69.5%. Moreover, the concentration at half-maximal activity (AC50) under setting [2] is 18.4 µM [rising, partial curve]. In addition, under setting [1], the AC50 is 6.51 µM [falling, single point].

Consider `O=C(CSC1=NCCS1)Nc1ccccc1F`, for which the cell number change was -14.8%. As to `Cc1ccc(NC(=O)C2CCCC2)cc1S(=O)(=O)N1CCOCC1`, the cell number change worked out at 18.2%. Besides, the half-maximal activity concentration (AC50) under setting [1] is 0.58 µM [rising, single point].

As to `Cc1cccc(N2C(S)=C(C#N)C(=O)NC2c2cccs2)c1` (configuration not stated), the cell number change was -16.2%. For the same compound, the concentration at half-maximal activity (AC50) under setting [1] was 20.6 µM [falling, partial curve]. Regarding `COc1ccc(S(=O)(=O)N2CCC(C(=O)Nc3ccccc3N3CCCCC3)CC2)cc1OC`, the cell number change is 9.9%. In addition, the concentration at half-maximal activity (AC50) under setting [1] is 29.1 µM [rising, single point]. As to `N/C(=N\OC(=O)CCC1CCCC1)c1ccccn1`, the cell number change was determined as 84.1%. With `CN(CC(=O)Nc1ccncc1)S(=O)(=O)c1ccc(Cl)cc1`, the cell number change was -17.6%. Besides, the half-maximal activity concentration (AC50) under setting [1] was 0.00461 µM [falling, full curve, poor fit]. Take `COC(=O)c1cn(-c2ccccc2)nc1-c1ccccc1`: the cell number change was -3.09%. Also, the AC50 under setting [1] was 3.66 µM [rising, partial curve]. As for `C=C(C)CN(CC)c1nc(N)c2c(N)nc3c(c2c1C#N)CC(=O)N3C12CC3CC(CC(C3)C1)C2`, the cell number change is -62.1%. Under setting [2], the half-maximal activity concentration (AC50) is 29.1 µM [falling, single point]. For the same compound, the concentration at half-maximal activity (AC50) under setting [1] was 6.51 µM [falling, single point]. Turning to `Cc1ccc(NC(=O)COC(=O)c2ccc(-n3cccn3)cc2)cc1C`, the cell number change was -9.52%. Under setting [1], the AC50 is 3.66 µM [rising, partial curve]. Turning to `CCOC(=O)C1=C(C)NC(=S)NC1c1ccc(-c2ccc(Cl)cc2)o1` (configuration not stated), the cell number change is -0.4%. Also, the AC50 under setting [1] was 3.66 µM [falling, full curve, poor fit]. As for `CC1=NN(c2cccc(C(=O)O)c2)C(=O)/C1=C\C=C\c1ccco1`, the cell number change was -17.8%. Also, the AC50 under setting [1] was 6.51 µM [falling, partial curve]. In the case of `O=C(NC1CCCC1)c1ccc(CS(=O)(=O)c2ccc(Br)cc2)o1`, the cell number change was 66.7%. Further, under setting [2], the concentration at half-maximal activity (AC50) was 4.61 µM [rising, partial curve]. The AC50 under setting [1] was 1.3 µM [rising, full curve]. On to `CSc1nnc(C(C)(C)C)c(=O)n1/N=C/c1ccccc1`, for which the cell number change worked out at 23.8%. In addition, the half-maximal activity concentration (AC50) under setting [1] was 0.461 µM [rising, partial curve]. In the case of `COc1ccc(N2CC(C(=O)OCC(=O)Nc3cccc(C)c3)CC2=O)cc1` (configuration not stated), the cell number change is -1.39%. In addition, under setting [1], the concentration at half-maximal activity (AC50) is 29.1 µM [falling, single point].

On to `Cc1coc2c(C)c3oc(=O)c(CCC(=O)NCCCn4ccnc4)c(C)c3cc12`, for which the AC50 under setting [2] was 0.58 µM [rising, single point].

With `CCOC(=O)c1c(NC(=O)Cc2cccs2)sc(C)c1C`, the cell number change is -13.5%. In addition, the AC50 under setting [1] is 0.164 µM [rising, full curve, poor fit].

For `CCNC(=O)CP(=O)(c1ccccc1)c1ccccc1`, the cell number change was -9.81%. Under setting [1], the AC50 is 4.11 µM [falling, single point]. In the case of `Cc1ccc(Nc2nc(C(=O)NCc3ccco3)cs2)cc1`, the cell number change is -32.9%. Also, the half-maximal activity concentration (AC50) under setting [2] was 5.8 µM [falling, full curve, poor fit]. For the same compound, the AC50 under setting [1] was 0.00461 µM [falling, full curve, poor fit].

As for `Cc1[nH]c2ccccc2c1C(=O)COC(=O)C1CC(=O)N(Cc2ccco2)C1` (configuration not stated), the AC50 under setting [2] is 6.51 µM [rising, single point]. Regarding `Cc1cccc(-c2noc(CCC(=O)NCc3ccccc3)n2)c1`, the cell number change amounted to 16.8%. For `COCCNC(=S)N(Cc1cccnc1)Cc1ccc(OC)c(OC)c1`, the cell number change was 2.13%. Moreover, the AC50 under setting [1] was 0.146 µM [rising, full curve, poor fit].

In the case of `Cc1ccc(NC(=O)C2CCN(C(=O)NC3CCCCC3)CC2)cc1Cl`, the cell number change was -16.8%. The concentration at half-maximal activity (AC50) under setting [1] is 29.1 µM [rising, single point]. In the case of `Cn1cnnc1SCc1ccc(C#N)cc1Cl`, the cell number change was -0.739%. Besides, the concentration at half-maximal activity (AC50) under setting [1] was 0.103 µM [falling, full curve, poor fit]. Consider `CCCCc1cc(=O)oc2cc(OC(C)C(=O)NCc3ccccn3)c(Cl)cc12` (configuration not stated), for which the cell number change was -21.7%. Also, the AC50 under setting [1] is 0.731 µM [falling, full curve, poor fit]. In the case of `COC(=O)CN1C(=O)C2(C(C#N)=C(N)Oc3ccccc32)C2=C1CC(C)(C)CC2=O` (configuration not stated), the cell number change is -18%. Moreover, the AC50 under setting [2] is 0.651 µM [falling, full curve]. Under setting [1], the half-maximal activity concentration (AC50) is 18.4 µM [falling, partial curve].

For `Cc1nc(C(C)NC(=O)c2cc(COc3ccc(C)c(C)c3)on2)c(C)s1` (configuration not stated), the cell number change is 7.63%. In addition, under setting [1], the half-maximal activity concentration (AC50) is 20.6 µM [falling, single point]. For `CC(=O)N1CCN(S(=O)(=O)c2ccc3c(c2)CCC(=O)N3)CC1`, the cell number change was 12%. Moreover, the half-maximal activity concentration (AC50) under setting [1] was 0.206 µM [rising, full curve, poor fit]. For `CC(C)CN(CC(C)C)C(=O)CN1c2cccc3cccc(c23)S1(=O)=O`, the AC50 under setting [2] was 6.51 µM [rising, single point]. Regarding `CC(Oc1cccc(Cl)c1)C(=O)Nc1cc(S(=O)(=O)N2CCOCC2)ccc1N1CCCC1` (configuration not stated), the cell number change amounted to 18.5%. As to `Cc1c(C(=O)Nc2cccc([N+](=O)[O-])c2)csc1-c1ccccc1`, the cell number change was -6.61%. Besides, under setting [1], the AC50 was 18.4 µM [falling, single point]. As to `O=C(NNC(=S)NC1CCCCC1)c1sc2ccccc2c1Cl`, the cell number change is -23.2%. Further, the AC50 under setting [1] is 29.1 µM [falling, single point].

For `O=C(COc1ccc(S(=O)(=O)NC2CCCCC2)cc1Cl)NCC1CCCO1` (configuration not stated), the cell number change stood at 88.9%. The half-maximal activity concentration (AC50) under setting [1] was 6.51 µM [rising, single point]. Regarding `CN(C)S(=O)(=O)N1CCN(C(=O)N2CCOCC2)CC1`, under setting [1], the AC50 is 3.26 µM [falling, full curve]. With `O=C(Nc1ccccc1)Nc1sccc1-c1nc2ccccc2s1`, the cell number change was -3.23%. Besides, under setting [1], the AC50 was 6.51 µM [falling, single point]. For `CC(=O)NCCn1c(SCC(=O)NCCC2=CCCCC2)nc2ccccc2c1=O`, the cell number change is -51.8%.

Consider `Cc1nc(NCc2ccc(S(N)(=O)=O)cc2)c2c(C)c(C)sc2n1`, for which the cell number change came to 19.6%.

For `CC(=O)c1ccc(C(=O)N2CCCC(C(=O)c3cc(F)ccc3F)C2)s1` (configuration not stated), the cell number change stood at 0.837%. For the same compound, the concentration at half-maximal activity (AC50) under setting [1] was 1.46 µM [rising, full curve, poor fit].

With `N#C/C(=N\Nc1ccccc1[N+](=O)[O-])C(=N)N1CCCCC1`, the cell number change is 63.6%. The AC50 under setting [2] was 3.66 µM [rising, full curve]. The AC50 under setting [1] was 9.2 µM [rising, partial curve]. `COC(=O)c1cc(NC(=O)c2nn(C)c(=O)c3ccccc23)cc(C(=O)OC)c1`: the cell number change came to 15.1%. Under setting [1], the AC50 was 29.1 µM [falling, single point].

In the case of `COC(=O)C1=C(C)NC(=S)N(C(C)=O)C1c1ccc(OC)c(OC)c1` (configuration not stated), the cell number change was 0.308%. Further, under setting [1], the half-maximal activity concentration (AC50) was 4.61 µM [rising, partial curve]. Turning to `O=C(Nc1ccc2c(c1)C(=O)OC2)c1ccc(Cl)cc1`, the cell number change was found to be 1.8%. Moreover, under setting [1], the half-maximal activity concentration (AC50) was 29.1 µM [rising, single point].

As for `Nc1cc(C(=O)N2CCCC2)cc(C(=O)N2CCCC2)c1`, the cell number change was 25.5%. Under setting [1], the concentration at half-maximal activity (AC50) was 29.1 µM [rising, single point]. For the compound `CCOC(=O)N1CCN(CCC(=O)Nc2cccc(Br)c2)CC1`, the concentration at half-maximal activity (AC50) under setting [1] was 0.651 µM [falling, partial curve, poor fit]. Turning to `O=C1CC(NS(=O)(=O)c2cc(F)ccc2F)CN1c1cccc(F)c1` (configuration not stated), the cell number change was 19.2%. Besides, the half-maximal activity concentration (AC50) under setting [1] was 29.1 µM [rising, single point]. With `CN=C1S/C(=C\c2ccc(Cl)cc2)C(=O)N1C`, the cell number change stood at 12.6%. Further, the concentration at half-maximal activity (AC50) under setting [1] is 1.84 µM [rising, full curve]. As to `O=[N+]([O-])c1cc(S(=O)(=O)Nc2ccc(Cl)cc2)ccc1N/N=C/c1ccncc1`, the cell number change stood at 37.6%. Further, the half-maximal activity concentration (AC50) under setting [2] was 23.1 µM [rising, single point]. As to `CS(=O)(=O)N(CC(=O)N/N=C/c1ccc(OCC(=O)N2CCOCC2)cc1)c1ccccc1Cl`, the cell number change was -6.11%. The half-maximal activity concentration (AC50) under setting [1] is 0.092 µM [falling, full curve, poor fit]. In the case of `CC(C)[C@H](NC(=O)c1ccccc1)C(=O)OCC(=O)N1CCCc2ccccc21`, the cell number change is -5.1%. Under setting [2], the concentration at half-maximal activity (AC50) is 0.259 µM [falling, single point]. With `Cc1[nH]n(-c2ccccc2)c(=O)c1/C=N/NC(=O)C(C)C`, the cell number change came out at 23.9%. For the compound `O=C(CCc1nc(-c2ccccc2F)no1)NCCN1CCc2ccccc2C1`, the cell number change was -58.4%. Further, the AC50 under setting [2] is 29.1 µM [falling, single point]. In addition, the half-maximal activity concentration (AC50) under setting [1] was 3.66 µM [falling, full curve, poor fit]. Regarding `Cc1nn2c3c(cnc2c1-c1ccccc1)C(=O)CCC3`, the cell number change is 19.8%. For the same compound, the AC50 under setting [2] was 4.11 µM [rising, full curve, poor fit]. For the same compound, the AC50 under setting [1] was 20.6 µM [rising, single point].

Regarding `CCOc1ccc(-c2c(C(=O)N/N=C/c3cccnc3)nnn2-c2nonc2N)cc1`, the cell number change came out at 3.06%. Also, the concentration at half-maximal activity (AC50) under setting [1] is 29.1 µM [rising, single point]. As for `COC(=O)c1sccc1Oc1ccc(F)cc1[N+](=O)[O-]`, the cell number change was determined as 5.38%. For the same compound, under setting [1], the concentration at half-maximal activity (AC50) was 29.1 µM [rising, single point]. As for `Cc1cc(C)nc(NC(=O)CSc2nc3ccccc3o2)n1`, the cell number change was found to be 7.81%. In addition, the concentration at half-maximal activity (AC50) under setting [2] is 1.84 µM [rising, partial curve, poor fit]. Take `Cc1c(C(=O)c2ccc(Cl)cc2[N+](=O)[O-])c2ccccn2c1CCC#N`: the cell number change was -16%. Moreover, the AC50 under setting [1] is 0.116 µM [rising, full curve, poor fit].

Broadly, the AC50 is the concentration giving half of the maximal activity seen. Low readings indicate greater potency, high ones weaker potency.

The record behind these values is PubChem BioAssay AID2685 (National Center for Advancing Translational Sciences (NCATS), 2010).
